PubChem BioAssay AID1259327 – Drosophila RNAi Screening Center | 2017
The deposit covers about 3,100 reagents; this is a part drawn at random. Over the whole deposit, 378 (12%) are marked active. 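Hits include both directions; z-score sign shows ATP rise or fall; raw luminescence values are not plate-normalised.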 Unmarked entries are inactive. Reagent sequences are not shown. Not given: the amount of reagent.

Purpose: 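Data from controls in screens of zinc and manganese toxicity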
System: Drosophila S2R+ cells
Knock-down reagent: long dsRNA against Drosophila genes
Time to read-out: 5 days (water added on day 4, read one day later)
Treatment: water added as vehicle, no metal, one day before read-out
Measurement: 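Luciferase ATP signal per well, normalised to plate mean, duplicate average converted to z-score across plates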
Scale: ATP z-score: higher = more total ATP than typical wells; ATP luminescence: higher = more total ATP
Rule for the call: 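Called active when the ATP z-score exceeds 1.5 or falls below -1.5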
Calls: active = hit: ATP up or down; inactive = no clear ATP change

Against CG7309 [DRSC03045], the entry reads ATP z-score, duplicate mean -0.293; ATP luminescence, replicate 1 (RLU) = 7.17e5; ATP luminescence, replicate 2 (RLU) = 6.74e5.
For CG7309 [DRSC27252], the entry reads ATP z-score, duplicate mean -1.72 (active); ATP luminescence, replicate 1 (RLU) = 8.71e5; ATP luminescence, replicate 2 (RLU) = 1.06e6.
After knock-down of jef [DRSC06198], the record shows ATP z-score, duplicate mean 0.394; ATP luminescence, replicate 1 (RLU) = 7.43e5; ATP luminescence, replicate 2 (RLU) = 5.67e5.
Depletion of jef [DRSC24815] gave: ATP z-score, duplicate mean 0.0971; ATP luminescence, replicate 1 (RLU) = 7.99e5; ATP luminescence, replicate 2 (RLU) = 8.24e5.
Tmep [DRSC08215] showed ATP z-score, duplicate mean -0.367; ATP luminescence, replicate 1 (RLU) = 6.55e5; ATP luminescence, replicate 2 (RLU) = 7.30e5.
Depletion of Tmep [DRSC26652] gave: ATP z-score, duplicate mean 1.1; ATP luminescence, replicate 1 (RLU) = 1.24e6; ATP luminescence, replicate 2 (RLU) = 1.43e6.
CG8323 [DRSC07149] scored ATP z-score, duplicate mean 1.66 (active); ATP luminescence, replicate 1 (RLU) = 7.79e5; ATP luminescence, replicate 2 (RLU) = 7.60e5.
bwa [DRSC01749] showed ATP z-score, duplicate mean -0.762; ATP luminescence, replicate 1 (RLU) = 6.35e5; ATP luminescence, replicate 2 (RLU) = 6.86e5.
For bwa [DRSC02310] the deposit lists ATP z-score, duplicate mean 0.0992; ATP luminescence, replicate 1 (RLU) = 7.35e5; ATP luminescence, replicate 2 (RLU) = 7.38e5.
Silencing of Srg2 [DRSC10681] resulted in: ATP z-score, duplicate mean -0.754; ATP luminescence, replicate 1 (RLU) = 6.57e5; ATP luminescence, replicate 2 (RLU) = 6.43e5.
Srg2 [DRSC24667] scored ATP z-score, duplicate mean 0.21; ATP luminescence, replicate 1 (RLU) = 8.42e5; ATP luminescence, replicate 2 (RLU) = 9.11e5.
Against CG34396 [DRSC04245], the values are ATP z-score, duplicate mean -0.851; ATP luminescence, replicate 1 (RLU) = 6.73e5; ATP luminescence, replicate 2 (RLU) = 6.00e5.
CG34396 [DRSC04246] showed ATP z-score, duplicate mean -0.539; ATP luminescence, replicate 1 (RLU) = 2.78e5; ATP luminescence, replicate 2 (RLU) = 6.95e5.
CG34396 [DRSC29674] scored ATP z-score, duplicate mean -0.0944; ATP luminescence, replicate 1 (RLU) = 8.65e5; ATP luminescence, replicate 2 (RLU) = 7.63e5.
After knock-down of ccb [DRSC20501], the screen gave ATP z-score, duplicate mean 0.254; ATP luminescence, replicate 1 (RLU) = 7.14e5; ATP luminescence, replicate 2 (RLU) = 8.30e5.
Against Or85a [DRSC16764], the entry reads ATP z-score, duplicate mean 0.383; ATP luminescence, replicate 1 (RLU) = 3.22e5; ATP luminescence, replicate 2 (RLU) = 7.90e5.
